This is one part of the list. The data scatter; read single values as rough.

By UniProt entry, the sequences of proteins in these tests, tags left out. Where a name states a change or a piece, a line headed by the entry shows the natural chain unless it says otherwise. Residues count along the entry.
UniProt Q16563: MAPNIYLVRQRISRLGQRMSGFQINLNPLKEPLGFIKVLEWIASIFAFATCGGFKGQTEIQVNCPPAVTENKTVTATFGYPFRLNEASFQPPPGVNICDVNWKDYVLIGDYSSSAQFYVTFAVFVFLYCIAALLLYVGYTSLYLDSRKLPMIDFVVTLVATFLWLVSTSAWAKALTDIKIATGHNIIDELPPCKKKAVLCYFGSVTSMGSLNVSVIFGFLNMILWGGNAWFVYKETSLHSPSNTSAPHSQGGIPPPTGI
UniProt Q9UMX1: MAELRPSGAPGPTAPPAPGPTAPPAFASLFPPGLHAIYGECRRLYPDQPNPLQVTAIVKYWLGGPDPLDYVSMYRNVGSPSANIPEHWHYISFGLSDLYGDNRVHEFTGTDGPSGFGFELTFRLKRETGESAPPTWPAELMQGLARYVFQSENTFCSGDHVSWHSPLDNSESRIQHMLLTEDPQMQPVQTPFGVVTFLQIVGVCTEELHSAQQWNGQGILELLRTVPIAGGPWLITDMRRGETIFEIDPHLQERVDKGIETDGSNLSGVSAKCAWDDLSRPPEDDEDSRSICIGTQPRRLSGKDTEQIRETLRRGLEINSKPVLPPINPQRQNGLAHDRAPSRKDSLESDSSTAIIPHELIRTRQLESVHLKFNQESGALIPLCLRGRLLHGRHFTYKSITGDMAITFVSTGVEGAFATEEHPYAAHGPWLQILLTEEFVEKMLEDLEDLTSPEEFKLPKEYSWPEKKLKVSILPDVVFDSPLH
UniProt Q8N5C6, 142-166: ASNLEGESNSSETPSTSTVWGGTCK
UniProt Q9UBP0: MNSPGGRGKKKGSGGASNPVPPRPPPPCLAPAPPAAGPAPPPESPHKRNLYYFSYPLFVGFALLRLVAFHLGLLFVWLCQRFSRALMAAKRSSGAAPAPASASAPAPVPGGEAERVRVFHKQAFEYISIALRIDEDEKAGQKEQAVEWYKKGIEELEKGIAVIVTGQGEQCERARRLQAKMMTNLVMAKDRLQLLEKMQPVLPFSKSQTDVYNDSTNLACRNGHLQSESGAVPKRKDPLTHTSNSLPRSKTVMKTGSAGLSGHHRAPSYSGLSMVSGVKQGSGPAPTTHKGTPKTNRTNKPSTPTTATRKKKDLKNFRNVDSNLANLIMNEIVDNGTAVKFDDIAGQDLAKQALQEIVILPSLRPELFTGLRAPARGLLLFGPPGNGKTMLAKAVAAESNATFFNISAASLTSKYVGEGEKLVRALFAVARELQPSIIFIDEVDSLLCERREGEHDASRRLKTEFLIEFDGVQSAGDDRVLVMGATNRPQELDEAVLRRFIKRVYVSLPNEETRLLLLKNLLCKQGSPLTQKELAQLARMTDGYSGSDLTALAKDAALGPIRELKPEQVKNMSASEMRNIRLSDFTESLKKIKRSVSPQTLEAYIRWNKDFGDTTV
UniProt Q9UHB9: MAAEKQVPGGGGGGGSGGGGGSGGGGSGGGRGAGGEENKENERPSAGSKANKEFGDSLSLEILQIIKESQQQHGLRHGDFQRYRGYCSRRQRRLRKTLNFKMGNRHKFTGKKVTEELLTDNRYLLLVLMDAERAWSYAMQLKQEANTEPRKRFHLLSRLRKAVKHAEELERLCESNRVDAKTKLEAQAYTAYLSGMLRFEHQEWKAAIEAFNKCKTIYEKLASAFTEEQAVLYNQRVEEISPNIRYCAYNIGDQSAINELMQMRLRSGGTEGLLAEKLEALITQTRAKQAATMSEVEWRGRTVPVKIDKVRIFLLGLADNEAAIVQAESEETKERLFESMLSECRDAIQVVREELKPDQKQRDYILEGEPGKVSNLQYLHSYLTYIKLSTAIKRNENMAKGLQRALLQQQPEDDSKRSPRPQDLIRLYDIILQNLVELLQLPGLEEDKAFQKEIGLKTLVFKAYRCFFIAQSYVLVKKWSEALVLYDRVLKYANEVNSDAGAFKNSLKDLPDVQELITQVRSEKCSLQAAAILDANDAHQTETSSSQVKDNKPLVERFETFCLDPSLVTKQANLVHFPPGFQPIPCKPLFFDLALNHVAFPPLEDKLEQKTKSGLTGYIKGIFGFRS
UniProt Q6ZWJ1: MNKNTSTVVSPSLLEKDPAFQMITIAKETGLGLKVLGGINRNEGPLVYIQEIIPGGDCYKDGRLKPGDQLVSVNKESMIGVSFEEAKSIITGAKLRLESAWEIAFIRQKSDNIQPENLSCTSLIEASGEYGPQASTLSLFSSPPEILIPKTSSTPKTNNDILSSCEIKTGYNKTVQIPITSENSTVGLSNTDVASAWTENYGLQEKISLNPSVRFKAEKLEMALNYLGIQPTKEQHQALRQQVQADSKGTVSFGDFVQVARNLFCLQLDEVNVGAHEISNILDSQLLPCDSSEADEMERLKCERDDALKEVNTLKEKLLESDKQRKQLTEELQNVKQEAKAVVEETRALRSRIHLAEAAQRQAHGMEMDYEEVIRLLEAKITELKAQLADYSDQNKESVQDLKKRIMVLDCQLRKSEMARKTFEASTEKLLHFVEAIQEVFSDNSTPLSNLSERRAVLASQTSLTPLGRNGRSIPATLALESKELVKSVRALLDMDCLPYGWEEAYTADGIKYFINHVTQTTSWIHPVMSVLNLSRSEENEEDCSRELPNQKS
UniProt Q9BXP5: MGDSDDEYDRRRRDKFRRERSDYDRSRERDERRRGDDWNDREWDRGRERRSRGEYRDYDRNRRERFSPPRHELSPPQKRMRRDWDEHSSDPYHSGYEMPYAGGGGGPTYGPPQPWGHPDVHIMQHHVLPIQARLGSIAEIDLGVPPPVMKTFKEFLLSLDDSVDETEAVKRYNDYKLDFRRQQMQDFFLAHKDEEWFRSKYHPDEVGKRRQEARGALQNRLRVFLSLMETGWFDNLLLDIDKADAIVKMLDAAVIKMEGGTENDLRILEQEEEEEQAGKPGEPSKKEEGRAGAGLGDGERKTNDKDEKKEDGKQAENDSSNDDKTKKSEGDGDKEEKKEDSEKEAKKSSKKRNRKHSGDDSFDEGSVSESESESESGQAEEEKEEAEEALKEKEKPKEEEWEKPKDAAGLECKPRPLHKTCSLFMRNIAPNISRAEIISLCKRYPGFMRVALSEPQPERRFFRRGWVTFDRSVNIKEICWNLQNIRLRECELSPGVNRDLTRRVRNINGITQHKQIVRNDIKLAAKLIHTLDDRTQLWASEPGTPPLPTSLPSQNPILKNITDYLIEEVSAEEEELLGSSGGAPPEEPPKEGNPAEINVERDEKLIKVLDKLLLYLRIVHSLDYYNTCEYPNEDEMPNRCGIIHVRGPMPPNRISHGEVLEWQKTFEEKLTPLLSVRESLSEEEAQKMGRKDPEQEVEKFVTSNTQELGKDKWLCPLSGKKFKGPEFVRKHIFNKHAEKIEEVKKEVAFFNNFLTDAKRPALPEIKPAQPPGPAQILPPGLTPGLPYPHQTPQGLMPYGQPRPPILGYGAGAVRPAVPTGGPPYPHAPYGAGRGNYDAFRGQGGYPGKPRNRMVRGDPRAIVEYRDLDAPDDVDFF
UniProt Q9Y5M8: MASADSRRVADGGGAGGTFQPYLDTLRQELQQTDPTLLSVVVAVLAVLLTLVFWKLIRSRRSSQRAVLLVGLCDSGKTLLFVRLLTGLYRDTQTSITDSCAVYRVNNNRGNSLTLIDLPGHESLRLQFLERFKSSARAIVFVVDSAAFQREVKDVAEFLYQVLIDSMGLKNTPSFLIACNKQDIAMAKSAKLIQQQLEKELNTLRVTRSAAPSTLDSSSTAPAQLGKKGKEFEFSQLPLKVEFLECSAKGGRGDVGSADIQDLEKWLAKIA
UniProt P08240: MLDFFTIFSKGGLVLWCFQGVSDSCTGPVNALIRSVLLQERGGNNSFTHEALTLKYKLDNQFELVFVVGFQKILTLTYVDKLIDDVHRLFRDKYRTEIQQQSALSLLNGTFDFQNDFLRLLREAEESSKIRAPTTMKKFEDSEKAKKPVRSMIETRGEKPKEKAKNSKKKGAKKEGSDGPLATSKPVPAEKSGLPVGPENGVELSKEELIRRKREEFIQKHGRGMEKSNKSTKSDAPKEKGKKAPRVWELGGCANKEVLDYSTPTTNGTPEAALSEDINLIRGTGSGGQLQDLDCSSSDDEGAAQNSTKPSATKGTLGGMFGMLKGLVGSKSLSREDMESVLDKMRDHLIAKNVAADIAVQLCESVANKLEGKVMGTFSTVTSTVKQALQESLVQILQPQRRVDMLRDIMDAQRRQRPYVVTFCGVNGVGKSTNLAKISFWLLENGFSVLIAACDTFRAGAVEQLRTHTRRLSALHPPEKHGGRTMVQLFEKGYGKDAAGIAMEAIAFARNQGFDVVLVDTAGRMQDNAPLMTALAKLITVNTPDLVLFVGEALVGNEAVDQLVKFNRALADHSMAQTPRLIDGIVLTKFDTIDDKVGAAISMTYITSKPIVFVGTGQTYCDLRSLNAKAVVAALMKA
UniProt Q8N1F8: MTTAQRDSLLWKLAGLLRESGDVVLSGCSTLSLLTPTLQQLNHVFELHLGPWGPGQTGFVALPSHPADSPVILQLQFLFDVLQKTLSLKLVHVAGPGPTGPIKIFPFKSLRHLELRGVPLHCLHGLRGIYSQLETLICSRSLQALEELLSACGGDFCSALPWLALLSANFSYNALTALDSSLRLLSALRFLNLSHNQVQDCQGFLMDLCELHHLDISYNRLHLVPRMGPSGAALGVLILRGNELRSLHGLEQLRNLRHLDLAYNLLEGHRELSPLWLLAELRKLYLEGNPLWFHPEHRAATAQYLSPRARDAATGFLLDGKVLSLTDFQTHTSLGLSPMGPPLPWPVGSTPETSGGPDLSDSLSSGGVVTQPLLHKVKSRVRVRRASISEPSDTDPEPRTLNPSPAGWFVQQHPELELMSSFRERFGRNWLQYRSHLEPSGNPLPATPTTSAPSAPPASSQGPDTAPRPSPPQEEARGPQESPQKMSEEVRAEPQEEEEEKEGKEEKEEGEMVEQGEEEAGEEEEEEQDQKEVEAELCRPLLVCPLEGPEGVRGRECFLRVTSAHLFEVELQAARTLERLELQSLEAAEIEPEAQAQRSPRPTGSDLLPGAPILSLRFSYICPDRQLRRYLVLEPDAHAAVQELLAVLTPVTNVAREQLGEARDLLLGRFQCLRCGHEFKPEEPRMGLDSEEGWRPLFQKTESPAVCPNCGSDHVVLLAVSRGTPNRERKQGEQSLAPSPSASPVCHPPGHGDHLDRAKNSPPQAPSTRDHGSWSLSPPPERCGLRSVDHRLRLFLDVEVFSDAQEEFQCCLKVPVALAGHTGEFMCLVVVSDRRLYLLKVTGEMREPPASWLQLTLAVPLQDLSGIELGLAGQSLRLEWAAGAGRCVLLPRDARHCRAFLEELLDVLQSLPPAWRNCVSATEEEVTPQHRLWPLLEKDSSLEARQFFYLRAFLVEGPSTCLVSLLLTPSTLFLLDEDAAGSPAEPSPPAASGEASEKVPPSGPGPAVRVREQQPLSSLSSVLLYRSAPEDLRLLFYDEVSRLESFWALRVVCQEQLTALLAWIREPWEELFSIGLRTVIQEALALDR
UniProt O15270: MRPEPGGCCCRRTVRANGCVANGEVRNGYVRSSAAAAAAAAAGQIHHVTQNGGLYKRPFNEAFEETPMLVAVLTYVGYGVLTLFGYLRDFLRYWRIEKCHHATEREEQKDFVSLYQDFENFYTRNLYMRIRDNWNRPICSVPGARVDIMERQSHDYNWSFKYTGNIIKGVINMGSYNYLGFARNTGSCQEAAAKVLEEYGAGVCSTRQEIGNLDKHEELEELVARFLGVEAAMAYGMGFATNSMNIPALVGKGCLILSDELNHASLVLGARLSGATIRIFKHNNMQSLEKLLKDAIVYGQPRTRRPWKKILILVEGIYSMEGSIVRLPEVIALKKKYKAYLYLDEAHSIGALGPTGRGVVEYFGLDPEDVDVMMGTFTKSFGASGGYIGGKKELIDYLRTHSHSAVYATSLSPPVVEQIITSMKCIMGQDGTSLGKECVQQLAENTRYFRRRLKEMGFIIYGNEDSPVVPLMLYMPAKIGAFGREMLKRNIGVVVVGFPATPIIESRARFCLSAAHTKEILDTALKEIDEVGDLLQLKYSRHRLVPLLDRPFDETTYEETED
UniProt O15269: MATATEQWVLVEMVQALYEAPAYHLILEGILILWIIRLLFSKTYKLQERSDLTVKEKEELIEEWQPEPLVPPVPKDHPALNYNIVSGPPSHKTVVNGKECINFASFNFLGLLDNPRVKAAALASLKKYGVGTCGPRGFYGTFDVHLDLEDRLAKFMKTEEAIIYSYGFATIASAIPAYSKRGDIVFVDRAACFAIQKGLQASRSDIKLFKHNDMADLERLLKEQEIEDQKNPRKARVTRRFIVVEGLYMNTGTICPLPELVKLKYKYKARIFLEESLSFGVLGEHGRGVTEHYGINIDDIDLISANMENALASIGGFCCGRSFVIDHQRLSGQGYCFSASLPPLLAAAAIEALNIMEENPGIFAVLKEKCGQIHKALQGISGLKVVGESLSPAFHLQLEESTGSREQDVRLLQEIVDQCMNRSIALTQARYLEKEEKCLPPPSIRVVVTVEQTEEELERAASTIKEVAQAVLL

Compound in one assay: ClCC(=O)N[C@@H]1CCCc2ccccc12
The experiment in a line: log2 mean competition ratio of IA-DTB cysteine labelling (DMSO/compound) (log2 ratio); higher = stronger cysteine engagement by compound. The conditions noted are these: 50 µM; treatment time: 4 h; cell line lysate: HEK293T. The method, then: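 IA-DTB competitive cysteine chemoproteomics in HEK293T RIPA lysate. Lysates were treated with compound 29 or 30 at 50 or 200 µM for 4 h, then IA-DTB (500 µM, 1 h), trypsin-digested, NeutrAvidin-enriched and analysed by diaPASEF. Competition ratio = intensity DMSO / intensity compound (n=4 treated, n=64 DMSO); binding: mean log2 CR ≥ 1 and p ≤ 0.05 plus QC filters. Target is the cysteine site.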
Consider SYPL1 C193 (UniProt Q16563), for which the “log2 mean competition ratio” value is -0.0707.

STK38 C234 (UniProt Q15208): the “log2 mean competition ratio” value stood at 0.252.

As to SUFU C292 (UniProt Q9UMX1), the “log2 mean competition ratio” value is -0.106.

Take SPATA5 C459 (UniProt Q8NB90): the “log2 mean competition ratio” value came to 0.389.

Turning to SRBD1 C502 (UniProt Q8N5C6), the “log2 mean competition ratio” value was 0.17.

Take SPAST C220 (UniProt Q9UBP0): the “log2 mean competition ratio” value was -0.014.

Turning to SRP68 C344 (UniProt Q9UHB9), the “log2 mean competition ratio” value is 0.139.

As to STXBP4 C411 (UniProt Q6ZWJ1), the “log2 mean competition ratio” value was determined as 0.237.

For SYNE2 C6739 (UniProt Q8WXH0), the “log2 mean competition ratio” value worked out at 0.0179.

With SRRT C715 (UniProt Q9BXP5), the “log2 mean competition ratio” value is 0.39.

In the case of SRPRB C179 (UniProt Q9Y5M8), the “log2 mean competition ratio” value is 0.412.

As to SRPRA C253 (UniProt P08240), the “log2 mean competition ratio” value stood at 0.404.

In the case of SRBD1 C165 (UniProt Q8N5C6), the “log2 mean competition ratio” value is -0.238.

Regarding STK11IP C138 (UniProt Q8N1F8), the “log2 mean competition ratio” value was determined as 0.0828.

As to SPTLC2 C188 (UniProt O15270), the “log2 mean competition ratio” value is -0.0457.

Consider SPTLC1 C419 (UniProt O15269), for which the “log2 mean competition ratio” value was -0.263.

On to SRPRB C73 (UniProt Q9Y5M8), for which the “log2 mean competition ratio” value came to 0.543.

Consider STK31 C563, for which the “log2 mean competition ratio” value amounted to 0.0728.

In the case of SPTBN2 C1474 (UniProt O15020), the “log2 mean competition ratio” value was 0.205.

For the target SPEN C1238 (UniProt Q96T58), the “log2 mean competition ratio” value was -0.287.

Still in this assay, the particulars now being: 200 µM; treatment time: 4 h; cell line lysate: HEK293T.
In the case of SYPL1 C193 (UniProt Q16563), the “log2 mean competition ratio” value amounted to 0.125.

Take STK38 C234 (UniProt Q15208): the “log2 mean competition ratio” value amounted to 0.0682.

For the target SUFU C292 (UniProt Q9UMX1), the “log2 mean competition ratio” value is -0.0778.

For the target SPATA5 C459 (UniProt Q8NB90), the “log2 mean competition ratio” value was determined as 0.911.

Consider SRBD1 C502 (UniProt Q8N5C6), for which the “log2 mean competition ratio” value was 0.225.

Consider SPAST C220 (UniProt Q9UBP0), for which the “log2 mean competition ratio” value was 0.0739.

Turning to SRP68 C344 (UniProt Q9UHB9), the “log2 mean competition ratio” value is 0.0971.

As for STXBP4 C411 (UniProt Q6ZWJ1), the “log2 mean competition ratio” value worked out at 0.271.

Consider SYNE2 C6739 (UniProt Q8WXH0), for which the “log2 mean competition ratio” value was -0.0294.

On to SRRT C715 (UniProt Q9BXP5), for which the “log2 mean competition ratio” value was determined as 0.78.

On to SRPRB C179 (UniProt Q9Y5M8), for which the “log2 mean competition ratio” value came out at 0.122.

For SRPRA C253 (UniProt P08240), the “log2 mean competition ratio” value is -0.124.

For the target SRBD1 C165 (UniProt Q8N5C6), the “log2 mean competition ratio” value is -0.0866.

As for STK11IP C138 (UniProt Q8N1F8), the “log2 mean competition ratio” value was found to be 0.505.

SPTLC2 C188 (UniProt O15270): the “log2 mean competition ratio” value is 0.00195.

For the target SPTLC1 C419 (UniProt O15269), the “log2 mean competition ratio” value was -0.095.

As for SRPRB C73 (UniProt Q9Y5M8), the “log2 mean competition ratio” value was determined as 0.217.

As to STK31 C563, the “log2 mean competition ratio” value came to 0.00483.

Turning to SPTBN2 C1474 (UniProt O15020), the “log2 mean competition ratio” value worked out at 0.0796.

SPEN C1238 (UniProt Q96T58): the “log2 mean competition ratio” value worked out at 0.0823.

These data come from the supplement of paper PMC11732987, “Enantioselective OTUD7B fragment discovery through chemoproteomics screening and high-throughput optimisation” (Communications Chemistry, 2025).
